According to US20060100154A1 (YEDA RESEARCH AND DEVELOPMENT CO, priority 2005, published 2006):

Legend:
[1] = general procedure: Fmoc solid-phase peptide synthesis; Rink amide resin; PyBOP; conditions: whole synthesis
peptide synthesis = conditions: conjugation step

Substance	crude HPLC purity ([1]; analytical HPLC (RP-18 and C4), scale 25 μmol)	conjugation yield (peptide synthesis)	isolated yield ([1]; scale of the general procedure 25 μmol)
[D-Lys^6]GnRH	>90%	–	–
[D-Lys^6(N-(2-chloro-1,4-naphthoquinonyl)-β-alanyl)]GnRH	–	60%	83%
